Source: the supplement of paper PMC3334620
Whole data set: some 33,000 sequences, median “E-score (-0.5 to 0.5)” near -0.016, cut for the highest 2% near 0.3. This is one part of the list.

These sequences were tested against T1, Yer184c (UniProt P39961) (assay: PBM E-score (8-mer binding enrichment) (E-score (-0.5 to 0.5)); higher = stronger / more preferred TF binding). Conditions: protein concentration: 100 nM; construct: GST-full length.
T1 sequence: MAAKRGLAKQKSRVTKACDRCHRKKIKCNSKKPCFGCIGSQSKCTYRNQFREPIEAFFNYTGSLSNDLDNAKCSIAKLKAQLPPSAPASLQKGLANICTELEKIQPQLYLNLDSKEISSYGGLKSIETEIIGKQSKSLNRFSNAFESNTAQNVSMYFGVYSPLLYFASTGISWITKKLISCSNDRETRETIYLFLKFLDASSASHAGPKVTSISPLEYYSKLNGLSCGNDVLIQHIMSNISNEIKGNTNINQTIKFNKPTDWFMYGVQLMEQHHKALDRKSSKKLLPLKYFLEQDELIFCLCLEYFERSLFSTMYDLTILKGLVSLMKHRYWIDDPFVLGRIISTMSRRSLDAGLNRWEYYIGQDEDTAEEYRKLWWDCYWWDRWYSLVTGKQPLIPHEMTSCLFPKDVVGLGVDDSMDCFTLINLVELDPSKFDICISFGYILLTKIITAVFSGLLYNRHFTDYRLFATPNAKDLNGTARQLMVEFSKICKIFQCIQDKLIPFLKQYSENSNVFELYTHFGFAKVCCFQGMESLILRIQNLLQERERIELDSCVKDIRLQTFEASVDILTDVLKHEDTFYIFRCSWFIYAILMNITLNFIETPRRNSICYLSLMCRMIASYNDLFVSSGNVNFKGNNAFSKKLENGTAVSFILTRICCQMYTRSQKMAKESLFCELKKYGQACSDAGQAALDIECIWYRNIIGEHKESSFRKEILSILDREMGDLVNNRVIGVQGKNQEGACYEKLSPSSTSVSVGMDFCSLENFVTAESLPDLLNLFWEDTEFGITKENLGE
Method in brief: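 The E-score, a modified Wilcoxon-Mann-Whitney statistic, was computed by the Universal PBM Analysis Suite for every ungapped eight-base word pooled with its reverse complement. Scans behind it were normalised with masliner after bound GST-tagged yeast transcription factors were detected with fluorescent anti-GST. The proteins, at about 100-200 nM, had been applied to universal all-10-mer Agilent arrays made double-stranded by primer extension.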

Sequence | PBM E-score
CTCGTAAA | 0.137
CATGTTTC | 0.266
TGATTGAA | 0.132
ATTTATCA | 0.258
AGGCCCGA | -0.107
ACGAAAGA | 0.0893
CTCACTTA | 0.0247
ATGACGCG | -0.0446
CGCCCTAG | -0.0716
CACGTGGA | -0.0537
AACTGTCC | -0.00537
AGCGGTGG | -0.192
CAAGCTCA | -0.0534
CGATTATA | 0.227
AAGTCCTC | -0.0915
AATCCTGT | 0.171
ACCGAGGT | 0.152
CGAATAAC | -0.0558
GTGTTCAA | 0.155
GAGCCAGC | -0.0389
CCTCACCG | -0.125
CCCCCGAC | -0.159
AAAGCGGC | 0.189
CTCTCTTA | -0.00692
CGAAGTTA | 0.068

Sequence | PBM E-score
AGACGTGG | -0.2
ACTTTAAA | 0.264
AGTGCTCA | -0.217
CACCGAGC | 0.231
GGTATACC | 0.0653
GGGGACCA | -0.295
AGTGTTCC | 0.179
CCATGCAC | -0.187
ACTTTTCC | 0.19
ATAGAGAG | -0.206
TGTTGCAA | 0.136
TATGAGCA | -0.136
CTTATGAC | 0.0647
GAATTCGA | 0.0389
CGTTATTC | 0.0466
AGCATGTA | -0.221
GCTGAGAA | -0.0651
AACTTTCG | 0.0577
ACGCCCGC | -0.197
CAACGATG | -0.0995
GATGACAC | 0.037
AATGGATA | -0.0725
AGGAAAAG | 0.0648
GTCTGTCA | 0.0873
CCCTCTGA | -0.123

Sequence | PBM E-score
GTGGGCCA | -0.0334
CATCGTCA | 0.0194
GTTCAGCA | -0.0489
ATCGAGGC | -0.0232
AATCTGCG | 0.138
AACAGTAA | 0.0462
ACTAGAGT | -0.00978
AAAAAGTA | 0.148
CCCTTTAC | -0.222
ACAGCTCT | -0.291
ACTGTTAA | -0.0278
CTCTAGAG | -0.248
TATATTAA | 0.274
ACTGCGAC | 0.133
AACTTGTC | 0.0387
CAGTAGCG | -0.0946
TAACTCGA | 0.22
CTAGGTAA | -0.0185
AAACGAGG | -0.124
ACCGCTAG | -0.297
ACACGTGA | -0.0935
ACCTGGTG | -0.0835
AAAGGAGT | 0.0301
GGTCCAAC | -0.0503
AATCGCGG | 0.108

Fetched one by one from the entries so far (five):
Sequence | PBM E-score
ACCTGGTG | -0.0835
AATCGCGG | 0.108
CTAGGTAA | -0.0185
ACTGTTAA | -0.0278
AAACGAGG | -0.124

Carrying on.

Sequence | PBM E-score
GACTGAAC | -0.0649
CGTCAGGA | -0.147
GATGTACA | 0.102
CACCTGCC | -0.0338
AGATGTAT | -0.0046
ACAGAATC | 0.0509
CCCAACTC | -0.00595
CAAGGTTC | -0.178
GACAAGAA | 0.151
AAAACCTT | 0.0691
GACGTCGC | -0.217
CATGGGCC | -0.144
ATTAGAAT | 0.115
AACGCGAT | -0.0476
CTGCAAAA | 0.0387
CGCCAGAG | -0.245
ACGCATTG | -0.182
ATTACAGC | -0.0585
AAAAGATG | 0.0556
CCGAGATC | 0.215
CAGAACCA | -0.18
GATCGTAA | -0.0745
CATTAGGA | -0.0805
GGTCGTAC | -0.214
GGGTGGAA | -0.245

Sequence | PBM E-score
GAAGACTC | -0.148
TATTAAAA | 0.318
ACCGCGGT | 0.195
CCCTTCCG | 0.0332
ATATATCC | 0.318
AGGTAGAT | -0.00359
CTATCCTC | -0.181
ATATCGGC | 0.273
TACCAGTA | 0.0786
GGAAGTAC | 0.0685
GTGCTGAA | -0.105
GTCCCGAC | 0.0165
ACCGACGA | 0.14
AATATGTG | 0.212
CGTCAAAG | -0.0597
CCTTATAA | 0.0799
TCAGCGGA | 0.132
GTGTGGGA | -0.0509
CGAAAACG | 0.176
CATTCATC | -0.114
AGCATGAG | -0.147
CGTTTCAG | 0.133
CATTTACC | 0.0454
CACAGTCA | -0.168
ACGTACCC | -0.109

Sequence | PBM E-score
CCAAAAGC | 0.0422
CAGGCATC | -0.177
AGCATACC | -0.196
AGGATTAT | -0.00175
ACAACTCG | 0.127
ATCGAACC | 0.076
ACAGTACC | 0.0654
CGGATGGA | 0.207
GCCTTATA | -0.0774
AATGATCT | -0.004
AGACGACC | -0.185
AAAGAAAG | 0.0977
AGCGACCT | -0.184
GCTAGTCC | -0.116
AATTCTCA | 0.0489
AATAGCAT | -0.00536
AGCTCTGA | -0.246
AACCAGGT | -0.0811
ACTTTCGC | -0.145
AGGGCCGC | -0.233
AACCGCGC | 0.0732
GAAGTTCA | 0.122
AGGTGGAG | -0.286
GAAACAAA | 0.173
CTAGCTAG | -0.0127

Sequence | PBM E-score
CGATGCGA | -0.0338
GCGCCAGC | -0.0829
ACAGGGGG | -0.339
AAATGGAT | -0.101
ATCCCGGA | 0.274
CAACCAGC | -0.179
CGAGTATC | -0.131
TGCAAAAA | 0.00535
GGGGATTA | -0.232
ATCGTGGC | -0.101
ATTTCTCG | 0.308
CCGGTTGA | 0.321
GGCTGATA | -0.0442
AGGAGCGC | -0.0781
ACGAGCGG | -0.162
GAATTACC | 0.165
GGCTGCCC | -0.0502
GTACGGAC | 0.203
TATGAGAA | 0.0707
AGGAACAT | 0.00633
CTCAGCTA | -0.106
AGAAACTA | -0.0263

A section taken from the entries so far, as a working copy:
Sequence | PBM E-score
GGCTGCCC | -0.0502
GTACGGAC | 0.203
TATGAGAA | 0.0707
AGGAACAT | 0.00633

Two entries from above, in markdown.

| Sequence | PBM E-score |
| --- | --- |
| CAACCAGC | -0.179 |
| GGCTGATA | -0.0442 |
